Some results were stated once for a whole list of compounds, not compound by compound.
What was measured:
SS-RBCs = assay: Heme-induced complement (iC3b, C5b-9) deposition on SS-RBCs, flow cytometry; type: cell-based, human; conditions: heme and autologous serum, FIG. 2A
Source text: RBCs and serum from SCD patients homozygous for the mutation in the hemoglobin gene (SS) were obtained from BioIVT (cat HUMANRBCALSUZN and HMRBC-SCA respectively) and from Sanguine Biosciences (Study #24348). Gelatin Veronal Buffer (GVB) was obtained from Boston Bioproducts (cat. IBB-300X). Mg-EGTA (cat. B106), C8 depleted normal human serum (cat. A325) and normal human serum (cat. NHS) were obtained from Complement Technology. PBS was obtained from Corning, cat. 21-031-CV. Porcine heme (Sigma, cat. 51280) was used at various concentrations (50-800 uM) to amplify complement activation and induce deposition on human cells.
All centrifugations were performed at 440×g for 5 min at 4° C. and supernatants aspirated with multi-channel pipets to avoid disturbing the loose RBC pellets.
Patient SS-RBCs were washed two or three times in PBS. To induce complement deposition, RBCs were resuspended in GVB, 5 mM Mg-EGTA (assay buffer) at 5×10^7 cells/mL and 30 μL added to sterile V-96 wells. Autologous serum was added to 20% final concentration. Complement inhibitors were diluted in assay buffer at 5× working stock of 3.125 μM and 10 μL added to wells containing cells. Porcine heme was added to 400 μM and the cells incubated for 20-30 minutes at 37° C., 5% CO2. Complement activation was stopped by the addition of 150 μL/well PBS containing 10 mM EDTA. […]

HMEC-1 cells = assay: Heme-induced complement (iC3b, C5b-9) deposition on HMEC-1 cells, flow cytometry; type: cell-based, human; conditions: HMEC-1, heme and NHS; FIG. 4A
Method: The endothelial cell line HMEC-1 was purchased from ATCC (CRL 3243) and expanded and banked at AcCellerate (Cat. CBA02, lot 92-190318FG01). This is a dermal microvascular endothelial cell line. Cells were used in experiments at passage <5.
All centrifugation steps were performed for 5-7 min at 200-300 g at room temperature (RT). HMEC-1 cells were seeded into 6 well plates at 1.5×10^5 cells per well in medium (Endothelial cell growth medium MV2, Promocell, cat. 22022) and allowed to reach confluency (72 hrs). Normal human serum (Complement Technologies, cat. NHS) was spiked with 1 uM inhibitor, diluted to 20% using Live cell imaging solution (LCIS) (Invitrogen, cat A1429DJ) containing 5-10 mM MgEGTA and added to HMEC-1 cultures in place of the medium. Heme was added to 400 μM, mixed and incubated for 20-30 min at 37° C. Cells were rinsed twice with 2 mLs PBS (Corning, cat. 21-031-CV) and detached with PBS containing 10 mM EDTA (Corning, cat. 46-034-CI). Cells were centrifuged, pellets resuspended in 400 μL sheath fluid (BD Biosciences, cat. 342003) and transferred to V-bottom 96 well plates in duplicate. After centrifugation, pellets were resuspended in 50 μL per well sheath fluid containing either iC3b or C5b-9 antibody diluted to 4 μg/mL. […]

CC(=O)c1nn(CC(=O)N2[C@H](C(=O)Nc3nc(Br)ccc3C)C[C@@]3(C)C[C@@H]23)c2ccc(-c3cnc(C)nc3)cc12 [ALXN2050, vermincopan]
reduction of C3 deposition on SS-RBCs (SS-RBCs): more than 90% | reduction of C3 deposition on HMEC-1 cells (HMEC-1 cells): more than 90%

Source: patent US20240353394A1, “ASSAY METHODS FOR SCREENING INHIBITORS OF SICKLE CELL DISEASE, ß-THALASSEMIA, OR SICKLE CELL ß-THALASSEMIA, OR A PHENOTYPE THEREOF” (Alexion Pharmaceuticals, Inc., priority 2021, published 2024)
